# Measured values taken from article PMC8770984.
# Protein sequences, listed by entry. Tags and fused reporters are not part of them.
# UniProt Q60636: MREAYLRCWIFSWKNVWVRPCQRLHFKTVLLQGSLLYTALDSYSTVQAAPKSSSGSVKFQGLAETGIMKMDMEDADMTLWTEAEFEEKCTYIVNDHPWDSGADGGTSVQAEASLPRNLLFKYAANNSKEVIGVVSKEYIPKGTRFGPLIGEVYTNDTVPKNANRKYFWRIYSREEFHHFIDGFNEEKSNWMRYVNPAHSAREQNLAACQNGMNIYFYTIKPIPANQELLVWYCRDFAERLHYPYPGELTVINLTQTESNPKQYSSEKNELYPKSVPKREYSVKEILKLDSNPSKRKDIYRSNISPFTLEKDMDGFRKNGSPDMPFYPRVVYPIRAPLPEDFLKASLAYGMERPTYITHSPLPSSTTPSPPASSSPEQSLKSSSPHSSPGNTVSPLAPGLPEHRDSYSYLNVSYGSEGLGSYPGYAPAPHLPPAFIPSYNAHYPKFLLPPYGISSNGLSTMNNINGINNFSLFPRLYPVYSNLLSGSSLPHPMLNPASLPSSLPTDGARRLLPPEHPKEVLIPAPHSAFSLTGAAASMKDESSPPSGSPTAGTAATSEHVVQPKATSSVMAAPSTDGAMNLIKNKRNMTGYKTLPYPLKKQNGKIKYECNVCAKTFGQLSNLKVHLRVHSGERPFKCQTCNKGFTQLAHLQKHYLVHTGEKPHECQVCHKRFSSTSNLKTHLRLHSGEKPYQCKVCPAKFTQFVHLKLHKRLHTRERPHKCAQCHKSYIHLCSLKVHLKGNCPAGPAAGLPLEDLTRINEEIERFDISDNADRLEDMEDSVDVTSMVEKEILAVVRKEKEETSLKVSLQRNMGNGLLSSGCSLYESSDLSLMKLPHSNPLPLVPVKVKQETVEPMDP
# No constants are given. Whether binding was seen depends on the method and setting. In cells and extracts the contact can be indirect. Some entries that bind do so weakly or less than the wild type.
# Target: T1, NFATc1 (endogenous, murine primary tTreg cells) (mouse (endogenous in murine primary Treg cells)) (UniProt O88942)
# T1 sequence: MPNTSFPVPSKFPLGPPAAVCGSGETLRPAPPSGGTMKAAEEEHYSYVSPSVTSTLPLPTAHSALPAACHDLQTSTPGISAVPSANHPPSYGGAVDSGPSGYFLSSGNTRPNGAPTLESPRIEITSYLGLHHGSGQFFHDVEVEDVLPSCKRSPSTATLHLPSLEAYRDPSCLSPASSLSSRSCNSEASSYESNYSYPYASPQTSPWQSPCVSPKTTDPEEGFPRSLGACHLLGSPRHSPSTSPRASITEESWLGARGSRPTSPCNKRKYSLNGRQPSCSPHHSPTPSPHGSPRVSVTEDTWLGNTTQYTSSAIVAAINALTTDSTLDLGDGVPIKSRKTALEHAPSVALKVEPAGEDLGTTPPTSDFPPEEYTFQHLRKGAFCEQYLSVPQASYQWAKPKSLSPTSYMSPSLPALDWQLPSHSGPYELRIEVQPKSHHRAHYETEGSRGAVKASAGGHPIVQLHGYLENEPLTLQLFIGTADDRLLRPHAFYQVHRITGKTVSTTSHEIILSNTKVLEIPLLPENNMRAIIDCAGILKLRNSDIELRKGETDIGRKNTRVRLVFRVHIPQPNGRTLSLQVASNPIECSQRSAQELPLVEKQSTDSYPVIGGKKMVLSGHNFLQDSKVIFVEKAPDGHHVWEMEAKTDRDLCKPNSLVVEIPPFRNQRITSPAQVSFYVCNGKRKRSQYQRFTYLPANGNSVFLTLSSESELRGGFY
# Test: co-IP; nuclear protein extracts of murine primary tTreg cells activated and expanded with anti-CD3/CD28 beads for 7 days; Nuclear Complex Co-IP Kit, anti-Blimp-1 (C14A4) and anti-NFATc1 (7A6) antibodies
substance,measurement,value
"Blimp-1 (endogenous, murine primary tTreg cells) (from UniProt Q60636 1-856)",binding,binds
